Measurements published in paper PMC6265327.

Protein sequences, listed by entry. Tags and fused reporters are not part of them. Lines headed by an entry give the natural chain unless they say otherwise; changes in a name come on top.
UniProt P21951: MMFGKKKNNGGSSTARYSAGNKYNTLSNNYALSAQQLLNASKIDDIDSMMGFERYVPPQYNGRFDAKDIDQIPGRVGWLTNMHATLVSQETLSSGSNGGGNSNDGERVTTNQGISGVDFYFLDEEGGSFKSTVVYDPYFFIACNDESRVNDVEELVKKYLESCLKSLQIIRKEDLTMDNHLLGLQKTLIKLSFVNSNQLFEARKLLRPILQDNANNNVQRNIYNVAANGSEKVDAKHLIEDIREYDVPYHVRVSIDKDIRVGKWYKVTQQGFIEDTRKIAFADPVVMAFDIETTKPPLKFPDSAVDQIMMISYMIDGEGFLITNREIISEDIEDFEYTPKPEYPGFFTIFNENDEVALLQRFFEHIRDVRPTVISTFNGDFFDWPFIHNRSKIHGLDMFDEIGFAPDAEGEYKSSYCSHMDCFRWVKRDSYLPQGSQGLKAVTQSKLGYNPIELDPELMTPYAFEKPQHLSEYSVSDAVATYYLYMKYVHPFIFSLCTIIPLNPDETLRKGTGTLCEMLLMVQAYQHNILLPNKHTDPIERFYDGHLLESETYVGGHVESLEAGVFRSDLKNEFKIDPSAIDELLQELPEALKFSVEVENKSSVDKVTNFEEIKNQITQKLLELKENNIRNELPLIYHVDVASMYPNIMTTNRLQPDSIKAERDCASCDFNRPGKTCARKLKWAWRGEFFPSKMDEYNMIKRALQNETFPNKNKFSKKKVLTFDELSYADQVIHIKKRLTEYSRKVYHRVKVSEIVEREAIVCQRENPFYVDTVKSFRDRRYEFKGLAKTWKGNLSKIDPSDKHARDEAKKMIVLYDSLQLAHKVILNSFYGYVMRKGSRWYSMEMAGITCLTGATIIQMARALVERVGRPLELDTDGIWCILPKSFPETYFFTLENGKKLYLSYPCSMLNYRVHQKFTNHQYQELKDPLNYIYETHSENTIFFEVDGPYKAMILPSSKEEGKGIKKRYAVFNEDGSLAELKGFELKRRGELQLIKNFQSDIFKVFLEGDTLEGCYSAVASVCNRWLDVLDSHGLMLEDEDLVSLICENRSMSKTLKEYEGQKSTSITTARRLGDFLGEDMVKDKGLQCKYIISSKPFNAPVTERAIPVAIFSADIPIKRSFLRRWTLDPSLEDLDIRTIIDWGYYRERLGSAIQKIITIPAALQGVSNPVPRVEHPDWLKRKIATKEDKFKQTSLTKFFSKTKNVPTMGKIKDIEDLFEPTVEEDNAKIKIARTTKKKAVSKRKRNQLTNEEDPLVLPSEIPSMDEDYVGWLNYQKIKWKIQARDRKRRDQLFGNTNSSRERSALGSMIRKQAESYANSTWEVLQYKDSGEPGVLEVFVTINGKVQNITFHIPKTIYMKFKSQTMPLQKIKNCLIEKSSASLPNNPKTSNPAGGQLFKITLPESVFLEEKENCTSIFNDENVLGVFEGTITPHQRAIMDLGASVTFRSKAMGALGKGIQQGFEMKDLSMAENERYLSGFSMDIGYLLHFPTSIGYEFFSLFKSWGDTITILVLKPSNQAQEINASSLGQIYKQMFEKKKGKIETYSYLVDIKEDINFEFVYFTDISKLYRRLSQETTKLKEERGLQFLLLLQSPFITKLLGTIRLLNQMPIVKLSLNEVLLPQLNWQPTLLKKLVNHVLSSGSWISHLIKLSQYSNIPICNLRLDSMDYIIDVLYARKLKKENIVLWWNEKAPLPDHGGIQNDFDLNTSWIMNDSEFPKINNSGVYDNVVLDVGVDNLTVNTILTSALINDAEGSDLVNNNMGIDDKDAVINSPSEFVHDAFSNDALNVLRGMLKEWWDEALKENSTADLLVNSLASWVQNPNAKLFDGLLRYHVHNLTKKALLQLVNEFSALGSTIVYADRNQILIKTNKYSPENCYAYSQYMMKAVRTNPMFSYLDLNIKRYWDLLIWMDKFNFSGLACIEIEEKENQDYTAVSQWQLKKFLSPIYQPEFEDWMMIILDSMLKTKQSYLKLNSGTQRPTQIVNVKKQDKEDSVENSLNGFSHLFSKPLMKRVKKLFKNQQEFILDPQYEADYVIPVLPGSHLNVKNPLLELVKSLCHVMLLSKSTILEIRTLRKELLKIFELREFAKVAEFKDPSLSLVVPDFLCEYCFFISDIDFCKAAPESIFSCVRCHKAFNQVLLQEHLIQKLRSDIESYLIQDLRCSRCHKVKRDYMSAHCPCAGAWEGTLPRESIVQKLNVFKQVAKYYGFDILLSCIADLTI

Target: Pol2 of Pol epsilon exo- (full length, exonuclease-inactivating mutations) (yeast (strains based on W303)) (UniProt P21951)
Assay: cryo-EM structure; 250 nM CMG bound to a desthiobiotin-labelled pre-formed DNA fork on streptavidin beads with 2 mM ATPgammaS, then 80 nM Pol epsilon exo-, 30 °C, eluted with biotin; no crosslinker; 4.9 Å; both purified

binding: binds
B1: Dpb2, subunit of the CBP-tagged Pol epsilon complexes (deltacat and exo-) (protein, UniProt P24482 1-689)
chain: MFGSGNVLPVKIQPPLLRPLAYRVLSRKYGLSIKSDGLSALAEFVGTNIGANWRQGPATIKFLEQFAAVWKQQERGLFIDQSGVKEVIQEMKEREKVEWSHEHPIQHEENILGRTDDDENNSDDEMPIAADSSLQNVSLSSPMRQPTERDEYKQPFKPESSKALDWRDYFKVINASQQQRFSYNPHKMQFIFVPNKKQNGLGGIAGFLPDIEDKVQMFLTRYYLTNDRVMRNENFQNSDMFNPLSSMVSLQNELSNTNRQQQSSSMSITPIKNLLGRDAQNFLLLGLLNKNFKGNWSLEDPSGSVEIDISQTIPTQGHYYVPGCMVLVEGIYYSVGNKFHVTSMTLPPGERREITLETIGNLDLLGIHGISNNNFIARLDKDLKIRLHLLEKELTDHKFVILGANLFLDDLKIMTALSKILQKLNDDPPTLLIWQGSFTSVPVFASMSSRNISSSTQFKNNFDALATLLSRFDNLTENTTMIFIPGPNDLWGSMVSLGASGTLPQDPIPSAFTKKINKVCKNVVWSSNPTRIAYLSQEIVIFRDDLSGRFKRHRLEFPFNESEDVYTENDNMMSKDTDIVPIDELVKEPDQLPQKVQETRKLVKTILDQGHLSPFLDSLRPISWDLDHTLTLCPIPSTMVLCDTTSAQFDLTYNGCKVINPGSFIHNRRARYMEYVPSSKKTIQEEIYI

No constants are given. Whether binding was seen depends on the method and setting. Binding calls can cover weak binding; strength is not graded here. Tags and fused reporters may be left off the sequences shown.
